From paper doi:10.1101/2020.07.07.191437 come the findings set out here.

Sequences of proteins named here, by UniProt entry; tags and fusion partners are left off. A change or cut given only in a name is not applied to a line headed by its entry.
UniProt Q92540: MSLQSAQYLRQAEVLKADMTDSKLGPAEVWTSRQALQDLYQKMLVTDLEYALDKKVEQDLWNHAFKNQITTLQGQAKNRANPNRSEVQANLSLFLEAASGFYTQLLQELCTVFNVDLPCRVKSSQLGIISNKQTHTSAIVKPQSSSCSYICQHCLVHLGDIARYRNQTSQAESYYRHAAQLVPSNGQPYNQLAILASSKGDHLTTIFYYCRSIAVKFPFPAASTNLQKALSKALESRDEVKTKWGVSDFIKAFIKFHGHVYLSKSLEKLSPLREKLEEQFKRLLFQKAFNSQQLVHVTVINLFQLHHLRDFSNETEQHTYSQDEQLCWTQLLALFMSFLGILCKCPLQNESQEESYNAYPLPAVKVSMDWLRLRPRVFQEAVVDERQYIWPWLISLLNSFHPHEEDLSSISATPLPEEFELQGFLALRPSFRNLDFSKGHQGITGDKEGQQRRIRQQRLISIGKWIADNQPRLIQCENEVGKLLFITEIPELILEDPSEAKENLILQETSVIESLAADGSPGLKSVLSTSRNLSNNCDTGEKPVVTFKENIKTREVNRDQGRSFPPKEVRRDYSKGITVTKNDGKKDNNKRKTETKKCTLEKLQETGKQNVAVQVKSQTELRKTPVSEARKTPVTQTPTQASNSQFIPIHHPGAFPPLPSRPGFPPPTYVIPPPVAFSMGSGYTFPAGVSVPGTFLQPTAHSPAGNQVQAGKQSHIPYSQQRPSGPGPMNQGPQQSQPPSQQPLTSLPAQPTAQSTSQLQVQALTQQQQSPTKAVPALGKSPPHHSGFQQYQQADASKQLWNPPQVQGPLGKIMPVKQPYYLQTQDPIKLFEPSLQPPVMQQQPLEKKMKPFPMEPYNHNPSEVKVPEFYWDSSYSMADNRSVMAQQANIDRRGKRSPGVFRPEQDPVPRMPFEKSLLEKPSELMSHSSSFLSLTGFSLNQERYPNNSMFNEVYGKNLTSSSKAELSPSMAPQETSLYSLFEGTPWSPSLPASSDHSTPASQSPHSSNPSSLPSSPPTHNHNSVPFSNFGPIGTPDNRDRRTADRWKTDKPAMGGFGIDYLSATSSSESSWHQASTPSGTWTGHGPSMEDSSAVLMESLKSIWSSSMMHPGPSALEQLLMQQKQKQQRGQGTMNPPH

The target of test [1] is FLAG-tagged SMG7 14-3-3^mut (full length) (human) (UniProt Q92540). As to the kind of experiment: co-IP.
Test [2] has as its target FLAG-tagged SMG7 1-633 14-3-3^mut (human) (UniProt Q92540). As to the kind of experiment: co-IP.

No constants are given. Whether binding was seen depends on the method and setting. In cells and extracts the contact can be indirect.

B1: UPF1 (protein, UniProt Q92900 1-1129)
chain: MSVEAYGPSSQTLTFLDTEEAELLGADTQGSEFEFTDFTLPSQTQTPPGGPGGPGGGGAGGPGGAGAGAAAGQLDAQVGPEGILQNGAVDDSVAKTSQLLAELNFEEDEEDTYYTKDLPIHACSYCGIHDPACVVYCNTSKKWFCNGRGNTSGSHIVNHLVRAKCKEVTLHKDGPLGETVLECYNCGCRNVFLLGFIPAKADSVVVLLCRQPCASQSSLKDINWDSSQWQPLIQDRCFLSWLVKIPSEQEQLRARQITAQQINKLEELWKENPSATLEDLEKPGVDEEPQHVLLRYEDAYQYQNIFGPLVKLEADYDKKLKESQTQDNITVRWDLGLNKKRIAYFTLPKTDSGNEDLVIIWLRDMRLMQGDEICLRYKGDLAPLWKGIGHVIKVPDNYGDEIAIELRSSVGAPVEVTHNFQVDFVWKSTSFDRMQSALKTFAVDETSVSGYIYHKLLGHEVEDVIIKCQLPKRFTAQGLPDLNHSQVYAVKTVLQRPLSLIQGPPGTGKTVTSATIVYHLARQGNGPVLVCAPSNIAVDQLTEKIHQTGLKVVRLCAKSREAIDSPVSFLALHNQIRNMDSMPELQKLQQLKDETGELSSADEKRYRALKRTAERELLMNADVICCTCVGAGDPRLAKMQFRSILIDESTQATEPECMVPVVLGAKQLILVGDHCQLGPVVMCKKAAKAGLSQSLFERLVVLGIRPIRLQVQYRMHPALSAFPSNIFYEGSLQNGVTAADRVKKGFDFQWPQPDKPMFFYVTQGQEEIASSGTSYLNRTEAANVEKITTKLLKAGAKPDQIGIITPYEGQRSYLVQYMQFSGSLHTKLYQEVEIASVDAFQGREKDFIILSCVRANEHQGIGFLNDPRRLNVALTRARYGVIIVGNPKALSKQPLWNHLLNYYKEQKVLVEGPLNNLRESLMQFSKPRKLVNTINPGARFMTTAMYDAREAIIPGSVYDRSSQGRPSSMYFQTHDQIGMISAGPSHVAAMNIPIPFNLVMPPMPPPGYFGQANGPAAGRGTPKGKTGRGGRQKNRFGLPGPSQTNLPNSQASQDVASQPFSQGALTQGYISMSQPSQMSQPGLSQPELSQDSYLGDEFKSQIDVALSQDSTYQGERAYQHGGVTGLSQY
Take B1: the binding entry in test [1] and in test [2] was “no binding” throughout.
